{"source": "PubChem BioAssay AID504774 – Drosophila RNAi Screening Center – 2011", "test": "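Fly genes whose loss alters survival after alkylation damage to DNA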 (primary screen)", "system": "Drosophila Kc167 cells", "knock-down reagent": "long dsRNA against Drosophila genes, about 0.25 µg dsRNA per well", "time to read-out": "about 6 days: 3 days knock-down, then 3 days with or without MMS", "conditions": "methyl methanesulphonate 0.004% (w/v) for 3 days after knock-down", "measurement": "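Viability in wells given MMS, read as ATP luminescence, normalised by quantiles plate by plate and averaged across replicates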", "direction": "mean viability with MMS: higher = more surviving cells after MMS", "note": "In all, the deposit lists about 23,000 reagents; below is an unselected part of those that have a named target and a result. 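Values are quantile-normalised luminescence on an arbitrary scale; higher means more cells surviving MMS.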 The numbers tell different reagents against one gene apart. Names joined by + are all predicted targets of the reagent. Not all columns of the deposit are shown."}
{"target": "CG14327", "reagent no.": 1, "mean viability with MMS": 3.27e6}
{"target": "CG5846", "reagent no.": 1, "mean viability with MMS": 3.49e6}
{"target": "rad50", "reagent no.": 1, "mean viability with MMS": 3.48e6}
{"target": "CG18343", "reagent no.": 1, "mean viability with MMS": 3.42e6}
{"target": "SF1", "reagent no.": 1, "mean viability with MMS": 3.18e6}
{"target": "Ank", "reagent no.": 1, "mean viability with MMS": 3.43e6}
{"target": "hll", "reagent no.": 1, "mean viability with MMS": 3.39e6}
{"target": "CG17824 (retired record)", "reagent no.": 1, "mean viability with MMS": 3.59e6}
{"target": "CG31436", "reagent no.": 1, "mean viability with MMS": 3.38e6}
{"target": "CG11626", "reagent no.": 1, "mean viability with MMS": 3.55e6}
{"target": "CG5348", "reagent no.": 1, "mean viability with MMS": 3.54e6}
{"target": "CR31958", "reagent no.": 1, "mean viability with MMS": 3.52e6}
{"target": "CR31958", "reagent no.": 2, "mean viability with MMS": 3.56e6}
{"target": "CG4375", "reagent no.": 1, "mean viability with MMS": 3.50e6}
{"target": "Pdha", "reagent no.": 1, "mean viability with MMS": 3.36e6}
{"target": "CG34238", "reagent no.": 1, "mean viability with MMS": 3.62e6}
{"target": "RpL18A", "reagent no.": 1, "mean viability with MMS": 2.98e6}
{"target": "dare + CG30033", "reagent no.": 1, "mean viability with MMS": 3.53e6}
{"target": "mRpS23", "reagent no.": 1, "mean viability with MMS": 3.26e6}
{"target": "CG5162", "reagent no.": 1, "mean viability with MMS": 3.44e6}
{"target": "CG44422", "reagent no.": 1, "mean viability with MMS": 3.20e6}
{"target": "CG44422", "reagent no.": 2, "mean viability with MMS": 3.38e6}
{"target": "CG44422", "reagent no.": 3, "mean viability with MMS": 3.37e6}
{"target": "CG44422", "reagent no.": 4, "mean viability with MMS": 3.57e6}

4 consecutive reagents already listed, for reference:
{"target": "CG11626", "reagent no.": 1, "mean viability with MMS": 3.55e6}
{"target": "CG5348", "reagent no.": 1, "mean viability with MMS": 3.54e6}
{"target": "CR31958", "reagent no.": 1, "mean viability with MMS": 3.52e6}
{"target": "CR31958", "reagent no.": 2, "mean viability with MMS": 3.56e6}
